At least one structure is not confirmed: it was looked up by name or label, or the drawing left a doubt.
Key:
[1] = tested on: AMPK α-catalytic subunit phosphorylation in 293T cells; assay: Metabolite treatment of glucose-starved 293T cells, Western blot of AMPK phosphorylation; format: cell-based; conditions: glucose starvation 2 hours, metabolite 200 μM, FIG. 1D
Experimental: Cells were subjected to glucose starvation treatment using glucose free culture medium for 2 hours. The corresponding metabolites were added to the culture medium according to the instructions shown in FIG. 1C and FIG. 1D, so that their concentration in the culture medium reached the labeled level, if there was no labeling, the concentration of metabolites in the culture medium was […]. After treatment, cells were collected to prepare lysis buffer, and the changes in specific proteins and phosphorylation of specific sites were detected by Western blot.
When the expression and function of these metabolic enzymes are inhibited, their corresponding products are decreased. Therefore, we speculate that there may be a mechanism by which AMPK is regulated by metabolite molecules in the glycolytic metabolic pathway, and the activation level of AMPK is related to metabolite content. To verify this hypothesis, we added different doses of exogenous 3-phosphoglycerate (3-PG) to 293T cells subjected to glucose starvation treatment (activation of AMPK signaling pathway). […] After treatment, cells were collected to prepare lysate, and the changes in specific proteins and the changes in phosphorylation sites of AMPK α-catalytic subunit were detected by Western blot.

LKB1 kinase = biological target: T1, LKB1 kinase (Homo sapiens, UniProt Q15831); assay: In vitro kinase experiment with LKB1 kinase (excluding STRAD1 and MO25) and His-AMPK α1; format: biochemical; conditions: metabolite 100 μM; FIG. 1J
T1 construct: the general method says FLAG-LKB1 instead) (N); made in house; host or cells: HEK293T (293T) cells, transfected; immunoprecipitation
T1 sequence (Q15831 1-433): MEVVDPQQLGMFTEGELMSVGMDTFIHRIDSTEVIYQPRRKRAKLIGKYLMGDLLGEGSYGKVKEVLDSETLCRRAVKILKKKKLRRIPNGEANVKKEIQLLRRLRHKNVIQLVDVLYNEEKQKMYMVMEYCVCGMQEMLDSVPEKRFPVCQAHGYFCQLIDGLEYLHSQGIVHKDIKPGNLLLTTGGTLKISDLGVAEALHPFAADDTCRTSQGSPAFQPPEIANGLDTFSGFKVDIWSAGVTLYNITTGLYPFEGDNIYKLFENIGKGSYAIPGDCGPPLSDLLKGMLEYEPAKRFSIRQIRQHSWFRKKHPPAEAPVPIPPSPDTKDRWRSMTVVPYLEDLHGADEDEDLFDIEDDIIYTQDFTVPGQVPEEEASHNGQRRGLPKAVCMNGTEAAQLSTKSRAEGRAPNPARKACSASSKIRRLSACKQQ
Experimental: The final reaction system for kinase experiment was: 50 mM Tris HCl, 10 mM MgCl2, 1 mM DTT, and 100 μM ATP. HEK293T cells were co-transfected with equal amounts of GST-LKB1, FLAG-STRAD, MYC-MO25 plasmids or solely transfected with FLAG-LKB1 plasmid. The cells were collected, processed for immunoprecipitation using GST beads or FLAG beads, washed three times with cell lysis buffer containing NP-40, and washed twice with kinase reaction buffer. The His-AMPK protein was induced and purified using E. coli BL21 competent cells. The kinase was incubated with metabolites at 100 μM at room temperature for 15 minutes before reaction, then added with reaction buffer and His-AMPK protein, and reacted at […] for 30 minutes. The phosphorylation of AMPK protein was detected by Western blot.
The final reaction system for the kinase experiment was 50 mM Tris-HCl, 10 mM MgCl2, 1 mM DTT, and 100 μM ATP. […] The kinase complex was pre-incubated with metabolites at room temperature for 15 minutes before reaction. Then the reaction buffer and His-AMPK protein were added, and reacted at 37° C. for 30 minutes. The phosphorylation of AMPK protein was detected by Western blot.

CC(=O)C(=O)O [pyruvate]
AMPK α-catalytic subunit phosphorylation signaling [1]: inhibitory effects | phosphorylation of AMPK α1 by LKB1 kinase (LKB1 kinase): significantly inhibit
